For one assay, the target named is CRX (UniProt O43186). As to the kind of experiment: DAPPL (digital affinity profiling via proximity ligation, sequencing). The settings on record: 10 mM Tris-HCl pH 7.5, 50 mM NaCl, 1 mM DTT, 4% glycerol, room temperature, 30 min; GST-TFs on glutathione beads, 16-mer random dsDNA library, 0.1% …; high values mean tight binding; double strand, one strand shown; scale: fold enrichment (6-mer frequency, TF over GST control).

By UniProt entry, the sequences of proteins in these tests, tags left out. Where a name states a change or a piece, a line headed by the entry shows the natural chain unless it says otherwise.
UniProt O43186: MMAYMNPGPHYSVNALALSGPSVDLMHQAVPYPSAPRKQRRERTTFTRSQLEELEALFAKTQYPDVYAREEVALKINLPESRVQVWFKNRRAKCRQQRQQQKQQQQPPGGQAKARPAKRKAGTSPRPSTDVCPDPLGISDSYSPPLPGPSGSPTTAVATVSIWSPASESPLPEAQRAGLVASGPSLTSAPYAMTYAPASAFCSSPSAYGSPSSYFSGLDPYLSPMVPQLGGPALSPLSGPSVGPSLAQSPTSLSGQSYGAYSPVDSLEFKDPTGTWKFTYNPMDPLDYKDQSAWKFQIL

For the next assay, the target named is T1, ELF5 (UniProt Q9UKW6-2).
T1 sequence: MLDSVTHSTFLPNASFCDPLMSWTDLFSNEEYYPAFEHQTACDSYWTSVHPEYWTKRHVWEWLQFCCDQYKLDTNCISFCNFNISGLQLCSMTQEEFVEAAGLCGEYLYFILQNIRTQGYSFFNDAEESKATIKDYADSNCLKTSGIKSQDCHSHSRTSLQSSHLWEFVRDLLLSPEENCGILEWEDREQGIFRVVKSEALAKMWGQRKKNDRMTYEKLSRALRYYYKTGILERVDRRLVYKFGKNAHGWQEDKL
The description is as above. The settings on record: 10 mM Tris-HCl pH 7.5, 50 mM NaCl, 1 mM DTT, 4% glycerol, room temperature, 30 min; GST-TFs on glutathione beads, 16-mer random dsDNA library, 0.1% …; high values mean tight binding; double strand, one strand shown; scale: fold enrichment (6-mer frequency, TF over GST control).

The entries are a selection whose mix differs from that of the whole data set. At the low end of the ranking the order means little.

GTTAAC yielded a binding signal in the assay with CRX of 1.15.

In the assay with CRX, GGCTTC returned a binding signal of 1.25.

In the case of ATGTCA, the binding signal with CRX was 0.835.

On to ATGGAC, for which the binding signal with CRX worked out at 0.909.

In the case of CGAAAG, the binding signal with CRX is 1.11.

On to AAGAAT, for which the binding signal with CRX was found to be 1.43.

CCGCCT: the binding signal with CRX was 1.25.

CCGCCC: the binding signal with CRX amounted to 0.913.

Regarding TGGCTA, the binding signal with CRX was 1.35.

TTCTCG yielded a binding signal with CRX of 2.17.

In turn, GCATCC showed a binding signal with CRX of 0.721.

As to GGGCTT, the binding signal with CRX was 1.77.

Sequence TATGGT yielded a binding signal with CRX of 1.29.

In the assay with CRX, TGTATC came in with a binding signal of 1.15.

CTCATG: the binding signal with CRX came out at 1.05.

ACTGCG had a binding signal in the assay with CRX of 0.925.

As for TCTAAA, the binding signal in the assay with CRX came out at 1.6.

Regarding AATGCA, the binding signal in the assay with CRX came to 1.14.

As for TTATAC, the binding signal with CRX is 2.54.

Take TTATCA: the binding signal in the assay with CRX was 2.19.

GCGTTC had a binding signal with CRX of 0.877.

For the sequence CGCCGA, the binding signal in the assay with CRX was 0.985.

For GATGAC, the binding signal with CRX amounted to 1.26.

The sequence GCTTCA returned a binding signal in the assay with CRX of 1.1.

In the assay with CRX, TTGGTG gave a binding signal of 1.28.

In turn, TGCACG showed a binding signal with CRX of 0.916.

In turn, CGATTC gave a binding signal with CRX of 1.09.

The sequence TATTCT registered a binding signal with CRX of 1.9.

Turning to TAGTAC, the binding signal in the assay with CRX was determined as 1.29.

For AATAAT, in the assay with CRX, the binding signal was 2.41.

As for AACATA, in the assay with CRX, the binding signal is 1.3.

In the case of GAACCT, the binding signal with CRX amounted to 1.06.

TATAAC came in with a binding signal with CRX of 1.43.

In the assay with CRX, GATACG returned a binding signal of 0.912.

The sequence TATCCG came in with a binding signal with CRX of 1.95.

In the assay with CRX, TTAACT registered a binding signal of 2.72.

Regarding CTTTCA, the binding signal in the assay with CRX is 1.25.

Regarding ATACCG, the binding signal in the assay with CRX amounted to 0.875.

Turning to CATCCG, the binding signal with CRX turned out to be 0.911.

Consider AAGCAC, for which, in the assay with CRX, the binding signal is 1.09.

Sequence CGGATA returned a binding signal with CRX of 0.966.

Consider CGCTTC, for which the binding signal with CRX was 1.05.

As to TGAACT, the binding signal in the assay with CRX is 1.12.

Sequence CTCGTG had a binding signal with CRX of 0.922.

As to GTCTTC, the binding signal in the assay with CRX came out at 0.858.

Take CCTCCC: in the assay with CRX, the binding signal is 1.21.

The sequence GTAACA had a binding signal with CRX of 0.85.

Take CCCGTT: in the assay with CRX, the binding signal was determined as 1.02.

With TCTTAC, the binding signal with CRX is 1.7.

With CATCCC, in the assay with CRX, the binding signal came out at 1.05.

As for TCATGC, the binding signal with CRX was 1.03.

Sequence ATCCGC had a binding signal with CRX of 2.06.

For the sequence GTACAT, in the assay with CRX, the binding signal was found to be 0.902.

The sequence TAGCTA had a binding signal with CRX of 1.58.

With ACCGGA, the binding signal with CRX stood at 0.861.

TGACGA: in the assay with CRX, the binding signal was 0.941.

For the sequence CGCGTC, the binding signal with CRX was 0.858.

In turn, CCGGCA came in with a binding signal with CRX of 0.808.

ACCCTA: the binding signal in the assay with CRX stood at 1.29.

On to TTAATG, for which the binding signal in the assay with CRX turned out to be 2.75.

TGGATG returned a binding signal with CRX of 1.45.

On to ATAGAA, for which the binding signal with CRX was determined as 1.28.

On to TCTCTG, for which the binding signal with CRX came to 1.49.

In the assay with CRX, GTCTCA gave a binding signal of 1.12.

Turning to AACCCA, the binding signal with CRX came out at 0.983.

Regarding GCCTTC, the binding signal in the assay with CRX was found to be 1.2.

GTTCTT: the binding signal in the assay with CRX was 1.12.

Take GTGGCT: the binding signal with CRX was determined as 1.18.

In the case of GTATGC, the binding signal with CRX worked out at 0.826.

CCATTG: the binding signal with CRX is 1.02.

GCAAAA: the binding signal with CRX amounted to 0.974.

With TTGATG, the binding signal with CRX stood at 1.5.

Regarding AAGTGG, in the assay with CRX, the binding signal was determined as 0.959.

As for ACATTG, the binding signal in the assay with CRX is 0.879.

Turning to AACAAA, the binding signal in the assay with CRX is 1.14.

Regarding AAAAGA, in the assay with CRX, the binding signal amounted to 1.28.

As for TTGCAT, the binding signal with CRX is 1.33.

In the assay with CRX, CAACAT showed a binding signal of 0.862.

Sequence CCTCGT showed a binding signal with CRX of 0.914.

As for TGCTAC, the binding signal in the assay with CRX came out at 0.967; in the assay with ELF5, 1.17.

Regarding CGCGAC, the values for the binding signal with CRX and in the assay with ELF5 were 0.836 and 0.999, respectively.

In the case of AGAAGC, the binding signal with CRX stood at 1.32; with ELF5, 1.18.

In the assay with CRX, AGTTCC gave a binding signal of 0.944.

The sequence TGAAAC came in with a binding signal with CRX of 0.977.

Sequence CGACCG gave a binding signal in the assay with CRX of 0.823.

TATGGA: the figures for the binding signal in the assay with CRX and with ELF5 were 1.4 and 1.08, respectively.

As for TGTAAA, the binding signal in the assay with CRX amounted to 1.2; in the assay with ELF5 it was 1.1.

Take TTACCC: the figures for the binding signal with CRX and with ELF5 were 1.95 and 1.43, respectively.

AAACCA: the results for the binding signal with CRX and with ELF5 were 1.14 and 1.13, respectively.

Regarding ACCTAC, the binding signal with CRX amounted to 1.02; with ELF5 it was 1.29.

Consider ATGGAA, for which the binding signal turned out to be 1.22 in the assay with CRX and 1.13 with ELF5.

Turning to ATTGAC, the binding signal was 1.11 with CRX and 1.19 with ELF5.

Take CAAATT: the figures for the binding signal with CRX and with ELF5 were 1.12 and 1.1, respectively.

Take AACAAT: in the assay with CRX, the binding signal came to 1.24.

Turning to GTTTGG, the binding signal came out at 0.801 in the assay with CRX and 1.1 with ELF5.

Take TCTTCT: the binding signal in the assay with CRX stood at 1.59.

In the case of TTTGGT, the binding signal in the assay with CRX is 1.51; with ELF5, 1.4.

With CCGGAA, the binding signal in the assay with CRX is 0.938; with ELF5, 6.42.

GTCTAC showed a binding signal with CRX of 0.837.

Consider TCTTTG, for which the values for the binding signal in the assay with CRX and with ELF5 were 1.27 and 1.09, respectively.

In the case of ATCATT, the results for the binding signal with CRX and with ELF5 were 1.28 and 1, respectively.

The sequence CTCGCC came in with a binding signal with CRX of 0.986.

In the case of CCTCAC, the binding signal in the assay with CRX worked out at 0.892; in the assay with ELF5, 1.22.

Take CAATAT: the binding signal in the assay with CRX came out at 1.15; with ELF5 it was 1.2.

Sequence AACGAC yielded a binding signal with CRX of 0.949.

ATATGT: the binding signal in the assay with CRX amounted to 0.941; in the assay with ELF5, 1.13.

Consider TCTAGT, for which the binding signal with CRX was 1.37; with ELF5, 1.04.

Take CACGCC: the figures for the binding signal with CRX and with ELF5 were 0.813 and 1.1, respectively.

In the case of TGCCGC, the binding signal with CRX worked out at 0.921; with ELF5 it was 1.22.

For TGTGTT, the binding signal in the assay with CRX was 0.854.

GTCACA: in the assay with CRX, the binding signal is 0.722.

For the sequence TATAGT, the figures for the binding signal with CRX and with ELF5 were 1.34 and 1.04, respectively.

For the sequence CCGAAG, the binding signal with CRX stood at 1.11; with ELF5, 0.999.

Turning to TGCTGT, the binding signal with CRX was found to be 0.84; with ELF5, 0.927.

On to CCGTAC, for which the binding signal with CRX worked out at 0.939; with ELF5, 1.46.

TTTCGA displayed a binding signal with CRX of 1.86.

In the case of CACTCG, the values for the binding signal in the assay with CRX and with ELF5 were 0.916 and 1.05, respectively.

In the case of CAATCA, the results for the binding signal in the assay with CRX and with ELF5 were 0.996 and 1.1, respectively.

Consider CCCCGG, for which the binding signal with CRX came to 0.822; with ELF5, 1.3.

On to TACCCT, for which the binding signal turned out to be 1.45 with CRX and 1.26 with ELF5.

These data come from article PMC7862700.
